Reference: patent publication US4621077A, “Pharmacologically active biphosphonates, process for the preparation thereof and pharmaceutical compositions therefrom” (Istituto Gentili S.p.A., priority 1982, dated 1986)
Several values for one entry are separate records, joined by “and”; a condition that tells them apart may be missing. Identical values can stand only once. Entries after “also recorded” stand apart in the source; their conditions may differ.

What was measured:
[1] = in vivo; parameters: species or system Swiss mice; conditions: mouse
Description: For this study Swiss mice, both male and female, have been utilized: during the experiment, the animals are fed according to the method with Altromin in the form of tablets. For the oral and intraperitoneal administration, there are used 5% gum arabic solutions while saline solutions of pH 4 are used for the intravenous injections.
The preliminary values of DL50 are calculated according to a graphic method. Table 1 reports the values of the DL50 in Swiss mice in mg/kg.

[2] = tested on: inhibition of the bone reabsorption
[3] = tested on: bone reabsorption and mineralization (tibia, trabecular metaphysis); parameters: species or system Wistar rats; conditions: rat, in vivo
Description: Groups of five Wistar rats of weight 180-200 grams are treated for a period of seven days with 0.1, 1.0 and 10 mg of P/kg of the following biphosphonic acids:
The animals kept as a control were administered the solvent with NaCl. All the treatments were carried out by the subcutaneous route. […] The animals were fed with Altromine 1314 containing 1.1 g/100 g P and 250 IU/100 g of vitamin D3. On the eighth day, the animals were killed and the tibia was removed and fixed in 50% ethanol. The tibiae were then dehydrated in increasing concentration of ethanol and allowed to soak in methylmethacrylate after the addition of Plastoid N. Frontal sections were removed and cut to a thickness of 70-80 μm and then the sections were submitted to microradiography. This procedure permitted to evaluate the density of the mineral in the trabecular metaphysis according to the method of Shenk et al., Calc. Tiss. Res. 11, 196-214, 1973).
One animal per group has been evaluated.

[4] = tested on: patients with primary hyperparathyroidism; conditions: simultaneous with decrease of calcemia
Description: The substance ABDP, aminobutanediphosphonate has been used for venous infusion, 0.5-25 mg/day dissolved in 500 cc of 5% glucose solution in the following conditions:
Eight individuals having different degrees of calcemia varying to the extent of 17-11 mg%, were treated.

[5] = tested on: injection sites / skin; assay: Necrosis at the injection sites in rats (local skin toxicity)
From the text: The symbol "x" represents a conventional score, that is "x" meand slight necrosis, "xx" means severe necrosis, "xxx" means very severe necrosis.

[6] = tested on: bone reabsorption (metaphyseal bone density); assay: Metaphyseal bone density / inhibition of bone reabsorption in rats treated for 7 days; format: in vivo; conditions: for metaphysical density: 7 days, rats
[7] = tested on: patients with Paget's disease; conditions: three patients, 4 mg or 0.5 mg per day, 8 and 21 days
Description: The substance ABDP, aminobutanediphosphonate has been used for venous infusion, 0.5-25 mg/day dissolved in 500 cc of 5% glucose solution in the following conditions: […]

Question: What does the source list for `NCCCC(O)(P(=O)(O)O)P(=O)(O)O` [AHBU BP, 4-amino-1-hydroxybutan-1,1-biphosphonic acid]?
Answer: LD50 ([1]; iv): 85 mg/kg; LD50 ([1]; po): > 2000 mg/kg; clinical potency, in words ([2]; human, in vivo): the most powerful diphosphonate for clinical use; tolerability of doses ([2]; patients): perfectly tolerated by the patients; effect on bone reabsorption, in words [3]: active on the reabsorption with a result slightly superior to Cl2 MBP; effect on mineralization, in words [3]: no effect or only a slight effect or only an effect to a very small extent; also recorded: does not induce or induces only to a very small extent the inhibition of mineralization at high dosage; urinary excretion of calcium [4]: decrease of the values of the urinary excretion of calcium; necrosis at the injection sites ([5]; 0.01 mg P/kg, 1 day): .0.; necrosis at the injection sites ([5]; 0.01 mg P/kg, 2 day): .0.; necrosis at the injection sites ([5]; 0.01 mg P/kg, 3 day): .0.; necrosis at the injection sites ([5]; 0.01 mg P/kg, 4 day): .0.; necrosis at the injection sites ([5]; 0.01 mg P/kg, 5 day): .0.; necrosis at the injection sites ([5]; 0.01 mg P/kg, 6 day): .0.; necrosis at the injection sites ([5]; 0.01 mg P/kg, 7 day): .0.; necrosis at the injection sites ([5]; 0.1 mg P/kg, 1 day): .0.; necrosis at the injection sites ([5]; 0.1 mg P/kg, 2 day): .0.; necrosis at the injection sites ([5]; 0.1 mg P/kg, 3 day): .0.; necrosis at the injection sites ([5]; 0.1 mg P/kg, 4 day): .0.; necrosis at the injection sites ([5]; 0.1 mg P/kg, 5 day): .0.; necrosis at the injection sites ([5]; 0.1 mg P/kg, 6 day): .0.; necrosis at the injection sites ([5]; 0.1 mg P/kg, 7 day): .0.; necrosis at the injection sites ([5]; 1 mg P/kg, 1 day): .0.; necrosis at the injection sites ([5]; 1 mg P/kg, 2 day): .0.; necrosis at the injection sites ([5]; 1 mg P/kg, 3 day): .0.; necrosis at the injection sites ([5]; 1 mg P/kg, 4 day): .0.; necrosis at the injection sites ([5]; 1 mg P/kg, 5 day): xxx and .0.; necrosis at the injection sites ([5]; 1 mg P/kg, 6 day): xxx; necrosis at the injection sites ([5]; 10 mg P/kg, 2 day): xxx; necrosis at the injection sites ([5]; 10 mg P/kg, 3 day): xxx; local / topical skin toxicity, in words ([5]; rat, in vivo): a topical skin toxicity which is lower than that of the 3-amino-1-hydroxypropylidene-1,1-bisphosphonate; metaphysical density ([6]; 0.01 mg P/kg s.c., s.c. NaCl controls 29.72): 48.96 % volume of calcified tissue; metaphysical density ([6]; 0.1 mg P/kg s.c., s.c. NaCl controls 29.72): 58.17 % volume of calcified tissue; metaphysical density ([6]; 1.0 mg P/kg s.c., s.c. NaCl controls 29.72): 60.00 % volume of calcified tissue; metaphysical density ([6]; 2.0 mg P/kg p.o., p.o. NaCl controls 28.45): 43.80 % volume of calcified tissue; activity on bone reabsorption / potency, in words ([6]; rat, in vivo, listed as 4-amino-1-hydroxybutylidene-1,1-bisphosphonate): This higher activity is also exhibited when the drug is administered orally; also recorded: the highest inhibitory activity on bone reabsorption; urinary excretion of hydroxyproline [7]: normalization of the urinary excretion of hydroxyproline
